Data on two molecules can be found in paper PMC3156230.

What all share (assay): co-IP; V5-tagged and Flag-tagged proteins co-expressed in transiently transfected HEK 293T cells; lysis buffer with 1% Triton X-100; cleared lysate incubated 1-2 h with anti-Flag M2 beads, washed four times; Western blot with anti-V5
A general note: Immunoblotting shows a protein as a band on a membrane.

Assay [1] addresses T1, C. elegans SYG-2 (C. elegans) (UniProt Q9U3P2).
T1 sequence: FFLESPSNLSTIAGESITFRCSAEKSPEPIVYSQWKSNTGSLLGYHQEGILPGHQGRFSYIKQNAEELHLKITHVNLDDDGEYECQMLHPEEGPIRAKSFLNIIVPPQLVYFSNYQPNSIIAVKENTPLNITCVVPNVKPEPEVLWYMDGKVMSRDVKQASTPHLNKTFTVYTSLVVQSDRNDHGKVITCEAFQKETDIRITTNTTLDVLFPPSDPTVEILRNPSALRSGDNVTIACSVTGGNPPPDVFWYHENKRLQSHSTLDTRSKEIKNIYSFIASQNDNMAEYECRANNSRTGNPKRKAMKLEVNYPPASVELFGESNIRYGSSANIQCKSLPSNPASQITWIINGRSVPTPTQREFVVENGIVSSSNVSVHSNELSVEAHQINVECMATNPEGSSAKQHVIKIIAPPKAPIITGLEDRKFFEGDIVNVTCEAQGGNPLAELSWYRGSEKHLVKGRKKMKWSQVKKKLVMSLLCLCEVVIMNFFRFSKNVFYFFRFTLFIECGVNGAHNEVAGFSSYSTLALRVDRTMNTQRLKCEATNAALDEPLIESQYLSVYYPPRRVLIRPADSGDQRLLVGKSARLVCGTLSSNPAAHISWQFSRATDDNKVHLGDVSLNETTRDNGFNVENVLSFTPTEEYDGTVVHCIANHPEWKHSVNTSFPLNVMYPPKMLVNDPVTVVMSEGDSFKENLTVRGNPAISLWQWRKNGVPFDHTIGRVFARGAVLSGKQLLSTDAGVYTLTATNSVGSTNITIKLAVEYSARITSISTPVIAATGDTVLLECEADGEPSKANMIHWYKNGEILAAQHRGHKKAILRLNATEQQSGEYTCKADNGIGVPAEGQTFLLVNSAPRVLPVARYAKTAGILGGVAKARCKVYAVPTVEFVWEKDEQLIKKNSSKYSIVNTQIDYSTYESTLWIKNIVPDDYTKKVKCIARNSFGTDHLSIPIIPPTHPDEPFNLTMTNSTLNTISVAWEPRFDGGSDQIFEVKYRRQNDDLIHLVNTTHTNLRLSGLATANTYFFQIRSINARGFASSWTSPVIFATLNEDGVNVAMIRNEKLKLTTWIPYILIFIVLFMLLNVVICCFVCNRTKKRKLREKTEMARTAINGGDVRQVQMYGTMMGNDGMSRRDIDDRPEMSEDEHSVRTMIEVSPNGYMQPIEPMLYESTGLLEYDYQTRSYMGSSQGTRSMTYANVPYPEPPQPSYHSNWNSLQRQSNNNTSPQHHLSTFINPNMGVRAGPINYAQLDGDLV

The next assay has as its target T2, human nephrin (human) (UniProt O60500).
T2 sequence: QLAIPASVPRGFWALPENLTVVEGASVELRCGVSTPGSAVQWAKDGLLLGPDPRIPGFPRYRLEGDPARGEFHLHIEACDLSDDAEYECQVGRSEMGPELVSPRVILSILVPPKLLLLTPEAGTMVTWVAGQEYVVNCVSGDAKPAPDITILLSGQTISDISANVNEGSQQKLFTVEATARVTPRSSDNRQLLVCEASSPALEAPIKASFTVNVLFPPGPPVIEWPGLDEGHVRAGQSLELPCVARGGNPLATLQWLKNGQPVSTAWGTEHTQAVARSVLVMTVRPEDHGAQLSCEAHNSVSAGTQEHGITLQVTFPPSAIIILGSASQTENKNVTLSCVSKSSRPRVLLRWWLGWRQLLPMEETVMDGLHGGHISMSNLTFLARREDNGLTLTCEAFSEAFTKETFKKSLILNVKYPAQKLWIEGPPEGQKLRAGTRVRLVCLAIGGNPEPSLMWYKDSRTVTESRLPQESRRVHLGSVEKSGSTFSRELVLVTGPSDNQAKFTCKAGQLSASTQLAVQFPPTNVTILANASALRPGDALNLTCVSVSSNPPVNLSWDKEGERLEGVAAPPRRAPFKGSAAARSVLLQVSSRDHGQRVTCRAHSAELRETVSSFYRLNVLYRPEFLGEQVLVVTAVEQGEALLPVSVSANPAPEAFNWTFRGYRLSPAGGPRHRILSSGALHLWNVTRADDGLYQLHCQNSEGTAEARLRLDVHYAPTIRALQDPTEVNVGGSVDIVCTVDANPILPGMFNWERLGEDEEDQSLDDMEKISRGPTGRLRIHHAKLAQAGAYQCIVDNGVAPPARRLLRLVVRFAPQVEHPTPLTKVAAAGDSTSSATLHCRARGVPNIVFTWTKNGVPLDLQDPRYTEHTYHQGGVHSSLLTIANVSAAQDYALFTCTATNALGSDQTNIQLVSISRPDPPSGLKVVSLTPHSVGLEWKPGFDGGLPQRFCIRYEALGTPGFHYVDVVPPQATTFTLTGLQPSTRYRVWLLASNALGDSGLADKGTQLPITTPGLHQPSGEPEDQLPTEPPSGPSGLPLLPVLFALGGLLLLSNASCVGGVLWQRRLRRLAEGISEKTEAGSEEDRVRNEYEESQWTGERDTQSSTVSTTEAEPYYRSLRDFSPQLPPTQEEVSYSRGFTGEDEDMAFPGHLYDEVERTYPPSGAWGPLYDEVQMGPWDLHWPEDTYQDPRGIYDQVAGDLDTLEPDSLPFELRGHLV

In a further assay the target is T3, LASP-1 (UniProt Q14847).
T3 sequence: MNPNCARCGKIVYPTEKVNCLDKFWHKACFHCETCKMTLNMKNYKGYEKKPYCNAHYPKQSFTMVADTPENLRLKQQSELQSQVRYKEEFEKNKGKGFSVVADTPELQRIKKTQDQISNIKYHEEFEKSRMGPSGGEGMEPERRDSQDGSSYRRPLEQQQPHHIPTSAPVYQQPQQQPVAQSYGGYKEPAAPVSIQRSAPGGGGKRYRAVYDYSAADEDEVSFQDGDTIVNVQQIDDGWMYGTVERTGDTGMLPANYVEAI

No constants are given. Whether binding was seen depends on the method and setting. In cells and extracts the contact can be indirect. Some binding calls cover weakened binding; strength is not graded here.

B1: C. elegans SYG-2 (receptor, UniProt Q9U3P2 20-1270)
chain: FFLESPSNLSTIAGESITFRCSAEKSPEPIVYSQWKSNTGSLLGYHQEGILPGHQGRFSYIKQNAEELHLKITHVNLDDDGEYECQMLHPEEGPIRAKSFLNIIVPPQLVYFSNYQPNSIIAVKENTPLNITCVVPNVKPEPEVLWYMDGKVMSRDVKQASTPHLNKTFTVYTSLVVQSDRNDHGKVITCEAFQKETDIRITTNTTLDVLFPPSDPTVEILRNPSALRSGDNVTIACSVTGGNPPPDVFWYHENKRLQSHSTLDTRSKEIKNIYSFIASQNDNMAEYECRANNSRTGNPKRKAMKLEVNYPPASVELFGESNIRYGSSANIQCKSLPSNPASQITWIINGRSVPTPTQREFVVENGIVSSSNVSVHSNELSVEAHQINVECMATNPEGSSAKQHVIKIIAPPKAPIITGLEDRKFFEGDIVNVTCEAQGGNPLAELSWYRGSEKHLVKGRKKMKWSQVKKKLVMSLLCLCEVVIMNFFRFSKNVFYFFRFTLFIECGVNGAHNEVAGFSSYSTLALRVDRTMNTQRLKCEATNAALDEPLIESQYLSVYYPPRRVLIRPADSGDQRLLVGKSARLVCGTLSSNPAAHISWQFSRATDDNKVHLGDVSLNETTRDNGFNVENVLSFTPTEEYDGTVVHCIANHPEWKHSVNTSFPLNVMYPPKMLVNDPVTVVMSEGDSFKENLTVRGNPAISLWQWRKNGVPFDHTIGRVFARGAVLSGKQLLSTDAGVYTLTATNSVGSTNITIKLAVEYSARITSISTPVIAATGDTVLLECEADGEPSKANMIHWYKNGEILAAQHRGHKKAILRLNATEQQSGEYTCKADNGIGVPAEGQTFLLVNSAPRVLPVARYAKTAGILGGVAKARCKVYAVPTVEFVWEKDEQLIKKNSSKYSIVNTQIDYSTYESTLWIKNIVPDDYTKKVKCIARNSFGTDHLSIPIIPPTHPDEPFNLTMTNSTLNTISVAWEPRFDGGSDQIFEVKYRRQNDDLIHLVNTTHTNLRLSGLATANTYFFQIRSINARGFASSWTSPVIFATLNEDGVNVAMIRNEKLKLTTWIPYILIFIVLFMLLNVVICCFVCNRTKKRKLREKTEMARTAINGGDVRQVQMYGTMMGNDGMSRRDIDDRPEMSEDEHSVRTMIEVSPNGYMQPIEPMLYESTGLLEYDYQTRSYMGSSQGTRSMTYANVPYPEPPQPSYHSNWNSLQRQSNNNTSPQHHLSTFINPNMGVRAGPINYAQLDGDLV
On to B1, for which, in assay [1], the binding entry is recorded as “binds”.

B2: C. elegans SYG-1 (receptor, UniProt B1Q236 19-730)
chain: QQLQQRIVEAPKDTLAAVGETAILTCRVEHQQGPVQWMKDDFGLGTDRDKPLPGNKRYRMVGSAANGEYNLEISNVTLFDDDDFACQISESDHAKAVVSSKAKLTVLVRPTPPKIVKSHHSLKAIAGDPITQSCLSRKGKPPPTIGWAIASDEHGKHIVSWLGESRSKFGGIHAKPEISQETVIAHVNETTQVEEGGNNSREDSSIYSIMSNLSFIPRPEDDHKYLICISQHMTFPNKIEVDSVKLSLRYAPQINLTVASKLPLRENGSALLACNVNAKPLDNVKISWYKGNQKLRETGDTLTFETLKMEDHNRDIFCEATNEIGTTRGSIKLNVAFGARIMSTSQDKEVNEGDNAFFHCATLANPAPAIFWTRGDSDEIIGHGENLTLENVRTWQQGNYNCTATVEGFRKQILSHYLHIRGPPTVSMKDEVSASLDEATEIICEISGRPKTNNVRWTVNGKEINFNNGRITVHQYPKPYGKESILKIKDLKEEDFGVYNCSANNGLGFDNRGTLLKKRNILDWIVITAKFDRMVALAIISAGVLLVSLLCCLCMCRSNCRSRKSKFIDDQSDVTVKCEALDGQYFPEMYSSSPVDNVHLSTKDYISIPQNNPDLDFLGATGSFGPPGGLYPKCFNNSANEYIYNRYEHSYGSFGSGLSTPGGVSDMYGVAMSDKLPVMETLQEVETPKTSNYNFLSSPEVVRPISRTSTHV
In the case of B2, the binding entry is “binds” in the assay with human nephrin (human) and “no binding” with LASP-1.
